# About 7,500 (2.1%) of roughly 360,000 compounds were called active. Inconclusive means that the source gave no clear call. Such entries were picked first, then a sample of the others. Calls come from the whole dose curve; as a rule, active = well fitted inhibition curve with a large enough effect; inconclusive = small, poorly fitted or top-dose-only effect, or effect the other way; inactive = flat fitted curve, though single readings scatter. Potencies beside an inconclusive call are fits to weak or partial responses and may not hold up.
# Test: Nrf2 qHTS screen for inhibitors; note: nearly all actives have a fitted effect of over 60% in size
# Settings: A549 ARE-Fluc reporter, luciferase luminescence, 18-24 h; activity change, negative = inhibition: at 46 µM (top of the series)
# Procedure, shortened: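 Quantitative HTS in A549 cells stably bearing an antioxidant response element-firefly luciferase construct. Inhibition of Nrf2-driven transcription was scored by luminescence after 18-24 h of compound exposure at 37 °C.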
# % is set by controls: 0 for no effect and ±100 for the full control effect; potency is the fitted concentration of half-maximal effect.
SMILES,Potency,"activity change, negative = inhibition"
COc1ccc(/C=C(/NC(=O)c2ccco2)C(=O)N2CCc3ccccc32)cc1OC,"inconclusive: 16.4 µM [activator, partial curve]",
Cc1ccc(C(=O)NC(=S)Nc2cccnc2Cl)cc1,"inconclusive: 10.3 µM [activator, partial curve]",
Oc1ccc(NCc2cccc(OCc3ccc(F)cc3)c2)cc1,"inconclusive: 4.61 µM [activator, full curve, poor fit]",
O=C1C2C3c4ccccc4C(c4ccccc43)[C@@H]2C(=O)N1c1nc(-c2ccccc2)cs1 (stereo partly drawn),"inconclusive: 2.91 µM [activator, partial curve, poor fit]",
COc1ccccc1NC(=O)Nc1nc(CC(=O)N2CCN(c3ccccc3F)CC2)cs1,,inactive: -10.5%
Cc1sc(NC(=O)C2CCCCC2C(=O)O)c(C(N)=O)c1-c1ccccc1 (stereo not drawn),"inconclusive: 14.6 µM [activator, partial curve]",
CCOC(=O)c1c(NC(=O)/C=C/C(=O)O)sc(C)c1-c1ccc(C(C)(C)C)cc1,"inconclusive: 29.1 µM [falling, single point]",
COc1ccc(CCNc2ncccc2C#N)cc1OC,"inconclusive: 29.1 µM [activator, single point]",
COC(=O)c1cccc(NC(=O)NC(=O)c2ccc(Cl)cc2)c1,active: 10.3 µM,
CCc1n[n+](CC(=O)c2ccccc2)c(N)s1,"inconclusive: 25.9 µM [activator, single point]",
COc1cc2c(cc1OC)C1CC(=O)C(CC(C)C)CN1CC2 (stereo not drawn),,inactive: -17.5%
CC(C(=O)Nc1nccs1)N1C(=O)c2ccccc2S1(=O)=O (stereo not drawn),"inconclusive: 25.9 µM [activator, partial curve, poor fit]",
CN1c2ccc([N+](=O)[O-])cc2C(C)(C)C12C=Cc1cc(C(=O)O)ccc1O2 (stereo not drawn),"inconclusive: 7.31 µM [falling, partial curve]",
N/C(=N\OC(=O)CCc1ccccc1)c1ccccc1Cl,"inconclusive: 29.1 µM [activator, single point]",
N#Cc1c(-c2ccccc2)cc(C2CC2)nc1N,"inconclusive: 6.51 µM [falling, single point]",
Cc1c(-c2nc(-c3cccnc3)no2)cccc1[N+](=O)[O-],"inconclusive: 23.1 µM [activator, single point]",
CC(NC(=O)COC(=O)c1cc(=O)[nH]c2ccccc12)c1ccccc1 (stereo not drawn),"inconclusive: 25.9 µM [activator, single point]",
O=C(COC(=O)c1ccc[nH]c1=O)Nc1ccc(N2CCCCC2)cc1,active: 2.31 µM,
NC(=O)[C@@H]1CC2(CC(c3cccc(NC(=O)CC(c4ccccc4)c4ccccc4)c3)=NO2)CN1C(=O)c1ccc(Cl)cc1 (stereo partly drawn),"inconclusive: 29.1 µM [falling, single point]",
COc1cccc(OC)c1C(=O)Nc1ccc(N2CCN(C(=O)c3cccs3)CC2)cc1,"inconclusive: 11.6 µM [falling, partial curve, poor fit]",
COc1ccccc1C(=O)Nc1ccc2c(c1)CCCN2C(=O)c1ccccc1,"inconclusive: 7.31 µM [falling, partial curve]",

# Another view of 5 compounds above:
SMILES	Potency	activity change, negative = inhibition
COC(=O)c1cccc(NC(=O)NC(=O)c2ccc(Cl)cc2)c1	active: 10.3 µM	
CCc1n[n+](CC(=O)c2ccccc2)c(N)s1	inconclusive: 25.9 µM [activator, single point]	
COc1cc2c(cc1OC)C1CC(=O)C(CC(C)C)CN1CC2 (stereo not drawn)		inactive: -17.5%
CC(C(=O)Nc1nccs1)N1C(=O)c2ccccc2S1(=O)=O (stereo not drawn)	inconclusive: 25.9 µM [activator, partial curve, poor fit]	
CN1c2ccc([N+](=O)[O-])cc2C(C)(C)C12C=Cc1cc(C(=O)O)ccc1O2 (stereo not drawn)	inconclusive: 7.31 µM [falling, partial curve]	

# Continued.

SMILES,Potency,"activity change, negative = inhibition"
Cc1ccc(S(=O)(=O)N2CCN(c3ccccc3)CC2)c(C)c1,"inconclusive: 10.3 µM [falling, partial curve, poor fit]",
O=C1CCc2cc(S(=O)(=O)N3CCN(c4cccc(Cl)c4)CC3)ccc2N1,"inconclusive: 20.6 µM [falling, partial curve, poor fit]",
COc1ccc(C(=O)Nc2ccc(-c3nnc4n3CCCCC4)cc2)cc1,"inconclusive: 10.3 µM [falling, partial curve, poor fit]",
CC(C)(C)c1ccc(OCC(=O)N/N=C/c2ccc(N3CCOCC3)cc2)cc1,,inactive: -20.8%
COc1cc(OC)cc(C(=O)Nc2cc(-c3nc4ccccc4[nH]3)ccc2C)c1,"inconclusive: 9.2 µM [falling, partial curve]",
COc1cccc(NC(=O)COc2nc3ccccc3nc2C)c1,"inconclusive: 0.0184 µM [activator, full curve, poor fit]",
O=C1/C(=C/c2ccccn2)SC(=S)N1c1cccc(O)c1,"inconclusive: 18.4 µM [activator, partial curve, poor fit]",
COc1ccccc1C1NC(c2ccc3c(c2)OCO3)=CC(c2ccccc2O)N1 (stereo not drawn),,inactive: 33.1%
Cc1ccc(-c2cc[n+](Cc3ccccc3)cc2)cc1,active: 7.31 µM,
Cc1nc(SCC(=O)Nc2ccc3[nH]c(=O)[nH]c3c2)nc(C)c1C,"inconclusive: 5.8 µM [falling, single point]",
COc1ccccc1NC(=O)Nc1ccc2c(c1)nc(C)n2C,"inconclusive: 1.46 µM [activator, full curve]",
CCCCNS(=O)(=O)c1ccc2nc(SCC(=O)c3ccccc3OC)[nH]c2c1,"inconclusive: 29.1 µM [falling, single point]",
CCOc1ccc(C(=O)Nc2ccc(N3CCN(C(=O)c4ccco4)CC3)cc2)cc1Br,"inconclusive: 0.461 µM [falling, full curve, poor fit]",
O=c1c2c(nc3cc(-c4ccccc4Cl)[nH]n13)CCS2,"inconclusive: 18.4 µM [activator, single point]",
Cc1cc2nc(-c3ccccc3O)[nH]c2cc1C,"inconclusive: 29.1 µM [activator, single point]",
Cn1c(-c2ccc(C(F)(F)F)cc2)cc2onc(-c3ccccc3)c2c1=O,"inconclusive: 3.66 µM [activator, full curve]",
Cc1csc(NC(=O)c2nc3nc(C)cc(C)n3n2)n1,"inconclusive: 0.891 µM [activator, full curve]",
O=C(CSc1nc2ccccc2c(=O)n1-c1ccccc1)c1cccc([N+](=O)[O-])c1,"inconclusive: 23.1 µM [falling, partial curve]",
Cc1nnc(SCc2ccc(Cl)cc2)n1CC1CCCO1 (stereo not drawn),"inconclusive: 5.8 µM [falling, full curve, poor fit]",
O=C(N/N=C/c1c[nH]c2ccccc12)c1cccs1,"inconclusive: 6.51 µM [activator, full curve, poor fit]",
COc1ccc(/C=N/NC(=O)c2nonc2C)cc1,"inconclusive: 10.3 µM [activator, partial curve]",

SMILES,Potency,"activity change, negative = inhibition"
COc1ccc(-n2cc(C(=O)N(CCN(C)C)Cc3ccccc3)c3ccccc3c2=O)cc1,"inconclusive: 20.6 µM [activator, single point]",
O=[N+]([O-])c1ccc(C2=Nc3cc(Cl)ccc3OC2)cc1,"inconclusive: 9.2 µM [activator, partial curve]",
O=C(Nc1nc(-c2ccccc2)cs1)c1ccccc1F,"inconclusive: 25.9 µM [activator, single point]",
C=C(CC)C(=O)c1ccc(OCC(=O)O)c(Cl)c1Cl,"inconclusive: 14.6 µM [falling, partial curve]",
CN1CCN(c2ccc([N+](=O)[O-])c(Sc3nc4ccccc4[nH]3)c2)CC1,"inconclusive: 13 µM [falling, partial curve, poor fit]",
O=C(c1ccc(Br)o1)N1CCN=C1SCc1cccnc1,"inconclusive: 29.1 µM [falling, single point]",
Cc1ccc(NC(=S)c2nc3ccccc3[nH]2)cc1,"inconclusive: 5.8 µM [activator, partial curve]",
COCCNC(=S)N1CCC(c2nc(-c3ccc(F)cc3)no2)CC1,"inconclusive: 23.1 µM [falling, single point]",
CC(/C=C/c1ccco1)=N/NC(=O)c1ccccc1Cl,"inconclusive: 13 µM [activator, partial curve, poor fit]",
Cc1cccc(C(C)C)c1NC(=O)CN(C)Cc1cccc(F)c1,"inconclusive: 29.1 µM [falling, single point]",
c1ccc(COc2ccc(OCCN3CCCC3)cc2)cc1,"inconclusive: 29.1 µM [activator, single point]",
Cc1oc2c(F)c(F)c(F)c(F)c2c1S(=O)(=O)Nc1cccc(C(F)(F)F)c1,active: 8.2 µM,
Cc1ccc(C)c(OCCn2c(C3CC(=O)N(Cc4ccc(F)cc4)C3)nc3ccccc32)c1 (stereo not drawn),"inconclusive: 25.9 µM [falling, single point]",
COc1ccc(NS(=O)(=O)c2cc(NC(=O)CC(=O)c3ccc([N+](=O)[O-])cc3)ccc2C)cc1,"inconclusive: 20.6 µM [falling, single point]",
CCOc1nc(C)ccc1-c1noc(-c2ccccn2)n1,"inconclusive: 0.103 µM [falling, full curve, poor fit]",
COc1ccc(Cc2nnc(SCC(=O)Nc3ccc(C)c(C)c3)o2)cc1OC,"inconclusive: 5.17 µM [falling, partial curve, poor fit]",
CCOC(=O)C(C(=O)OCC)C(Nc1cccc(Br)c1)c1ccccc1 (stereo not drawn),active: 18.4 µM,
Cc1cc(C)n(-c2ccc(C(=O)Nc3ccc4c(c3)OCO4)cc2)n1,"inconclusive: 20.6 µM [falling, single point]",
COC(=O)c1sccc1NC(=O)CSc1ccccc1NS(=O)(=O)c1ccc(F)cc1,"inconclusive: 32.6 µM [falling, single point]",
O=C(/C=C/c1cccc([N+](=O)[O-])c1)Nc1cccc(NC(=O)c2cccs2)c1,"inconclusive: 16.4 µM [falling, single point]",
CCOc1ccc(N/C=C/C(=O)c2ccccc2)cc1,"inconclusive: 1.64 µM [activator, partial curve, poor fit]",
